# Test results from the supplement of paper PMC8256030.
# Where “and” joins values, the source holds several entries; their conditions need not be identical. Equal entries are not always repeated. The list shows a part of the results. Repeats in this data set agree poorly, so a single value says little.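 HEK293T cells were given each compound shortly before transfection with a reporter in which red mCherry is followed by the SARS-CoV-2 frameshift element and then GFP in the −1 frame, so GFP appears only after frameshifting.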
# Legend:
# [1] = system: SARS-CoV-2 -1 PRF reporter mCherry-FSE-GFP(-1); assay: mCherry (red) intensity as percent of control; higher = higher upstream reporter expression; conditions: 10 µM; 24 h; HEK293T
# [2] = system: SARS-CoV-2 -1 PRF reporter mCherry-FSE-GFP(-1); assay: percent effect, decrease of GFP/mCherry ratio (-1 PRF reporter) relative to controls; higher = stronger frameshift inhibition; conditions: 10 µM; 24 h; HEK293T
SMILES,mCherry [1],percent effect [2]
Nc1ncnc2c1ncn2Cc1c(F)cccc1Cl [arprinocid],88.6%,-5.34%
CCOC(=O)/C=C(C)/C=C/C=C(C)/C=C/c1c(C)cc(OC)c(C)c1C [etretinate],60.4%,0.139%
CC(C)(Oc1ccc(Cl)cc1)C(=O)OCCOC(=O)c1cccnc1 [etofibrate],91.6%,-3.29%
CN(C)[C@@H]1C(=O)C(C(=O)NCNCCCC[C@H](N)C(=O)O)=C(O)[C@@]2(O)C(=O)C3=C(O)c4c(O)cccc4[C@@](C)(O)[C@H]3C[C@@H]12 [lymecycline],131%,-4.64%
C[C@@H]1C/C=C/C=C/C=C/C=C/[C@H](O[C@@H]2O[C@H](C)[C@@H](O)[C@H](N)[C@@H]2O)C[C@@H]2O[C@](O)(C[C@@H](O)C[C@H]3O[C@@H]3/C=C/C(=O)O1)C[C@H](O)[C@H]2C(=O)O [Natamycin],83.5%,-4.16%
CNC1Cc2ccccc2N(C)c2ccccc21 (stereo not given) [metapramine],70.9%,0.0203%
NCc1ccccc1CC(=O)N[C@@H]1C(=O)N2C(C(=O)O)=C(CSc3nnnn3CC(=O)O)CS[C@H]12,108%,-3.76%
CSCCC(N)C(=O)O (stereo not given),147%,0.804%
CCN(CC)CCNC(=O)c1cc(Cl)c(N)cc1OC [metoclopramide],90.1% and 86.4%,-2.15% and -3.89%
CC[C@H]1OC(=O)C[C@@H](O)[C@H](C)[C@@H](O[C@@H]2O[C@H](C)C[C@H](N(C)C)[C@H]2O)[C@@H](CC=O)C[C@@H](C)C(=O)/C=C/[C@]2(C)O[C@H]2[C@@H]1C [rosaramicin],64.8%,-4.58%

# 2 entries from above, tab-delimited.
SMILES	mCherry [1]	percent effect [2]
CC(C)(Oc1ccc(Cl)cc1)C(=O)OCCOC(=O)c1cccnc1 [etofibrate]	91.6%	-3.29%
CN(C)[C@@H]1C(=O)C(C(=O)NCNCCCC[C@H](N)C(=O)O)=C(O)[C@@]2(O)C(=O)C3=C(O)c4c(O)cccc4[C@@](C)(O)[C@H]3C[C@@H]12 [lymecycline]	131%	-4.64%
